From PMC5534430, “Crystal structure of a Pseudomonas malonate decarboxylase holoenzyme hetero-tetramer” (Nature Communications, 2017) come the findings set out here.

Assay [1] deals with MdcE with deletion of the C-terminal residues 242–268, His-tagged (P. aeruginosa). Briefly: pull-down; nickel pull-down; only MdcE carries a His tag; wild-type and mutant subunits expressed as for the wild-type hetero-tetramer.
Assay [2] has as its target MdcE subunit of malonate decarboxylase (P. aeruginosa), N-terminal His tag (P. aeruginosa). The assay can be described thus: crystal structure; MDC hetero-tetramer (MdcA, MdcD, MdcE of P. aeruginosa, MdcC of P. fluorescens): malonate complex at 2.2 Å and CoA complex at 3.0 Å; 20% PEG 3350, 8% Tacsimate; both purified.
The target is the same in assay [3]. The assay can be described thus: crystal structure; MdcD–MdcE complex, 1.86 Å, selenomethionyl SAD; two copies in the asymmetric unit; crystals at 20 °C, 0.1 M Bis-Tris pH 5.8, 18% PEG 3350, 0.2 M ammonium acetate; both purified.

No constants are given. Whether binding was seen depends on the method and setting. For part of these data: Binding calls can cover weak binding; strength is not graded here. For part of these data: Binding seen in cells or lysates may run through a third protein. For part of these data: Sequences can lack the tags named with a protein.

B1: MdcC subunit (acyl-carrier protein) of malonate decarboxylase (P. fluorescens), untagged (protein, UniProt Q4K4F7 1-99)
chain: METLSFEFPAGQPGRGRALVGCVGSGDLEVLLEPGQPGKLSIQVQTSVNGSASRWQHLFERLFDGQTPPALLIDIHDFGATPGVVRLRLEQGFEEIGHD
For the molecule B1, the binding result in assay [1] is recorded as “no binding”.

B2: MdcD subunit of malonate decarboxylase (P. aeruginosa) (protein, UniProt Q9I6S7 1-287)
chain: MTDVARLLALRSFTELGARQRARALLDAGSFRELLDPFAGVQSPWLERQGIVPQADDGVVVARGLLDGQPAVLAAIEGAFQGGSLGEVSGAKIAGALELAAEDNRNGVPTRALLLLETGGVRLQEANLGLAAIAEIQAAIVDLQRYQPVVAVIAGPVGCFGGMSIAAGLCSYVLVTREARLGLNGPQVIEQEAGIAEYDSRDRPFIWSLTGGEQRFASGLADAYLADDLDEVRTSVLAYFAKGLPARPRCRRAEDYLRRLGDLDTAEQPDAAGVRRLYQGLGQGDAT
For the molecule B2, the binding entry in assay [2] and in assay [3] was “binds” throughout.
